# These are yes or no findings as the source states them, for the method shown. In cells and extracts the contact can be indirect. Some entries that bind do so weakly or less than the wild type.
# The chains behind the UniProt entries cited, without tags or fusion partners. Where a name states a change or a piece, a line headed by the entry shows the natural chain unless it says otherwise. Residues count along the entry.
# UniProt P42568: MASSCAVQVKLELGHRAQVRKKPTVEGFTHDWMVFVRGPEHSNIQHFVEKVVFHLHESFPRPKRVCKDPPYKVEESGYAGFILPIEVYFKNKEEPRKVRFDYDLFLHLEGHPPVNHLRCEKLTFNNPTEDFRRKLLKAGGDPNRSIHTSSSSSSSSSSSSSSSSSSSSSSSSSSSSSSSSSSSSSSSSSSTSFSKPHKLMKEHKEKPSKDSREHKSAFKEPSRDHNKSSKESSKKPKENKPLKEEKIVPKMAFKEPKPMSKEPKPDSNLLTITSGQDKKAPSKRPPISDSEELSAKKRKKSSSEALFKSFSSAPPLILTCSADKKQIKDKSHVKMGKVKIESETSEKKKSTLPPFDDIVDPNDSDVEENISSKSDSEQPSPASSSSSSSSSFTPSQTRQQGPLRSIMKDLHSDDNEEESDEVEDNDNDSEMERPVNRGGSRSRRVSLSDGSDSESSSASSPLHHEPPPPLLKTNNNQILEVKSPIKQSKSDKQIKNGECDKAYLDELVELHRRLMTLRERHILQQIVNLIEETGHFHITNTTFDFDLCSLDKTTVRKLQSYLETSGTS
# MLLT3 N-terminus (Flag 1-279): residues 1-279 of P42568
# UniProt P09429: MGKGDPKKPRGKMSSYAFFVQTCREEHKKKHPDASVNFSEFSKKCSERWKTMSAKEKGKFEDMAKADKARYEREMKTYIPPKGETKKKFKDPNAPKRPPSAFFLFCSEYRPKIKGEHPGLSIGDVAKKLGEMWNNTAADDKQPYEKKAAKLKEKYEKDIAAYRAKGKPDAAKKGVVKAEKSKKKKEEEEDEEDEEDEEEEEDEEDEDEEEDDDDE
# UniProt P67809: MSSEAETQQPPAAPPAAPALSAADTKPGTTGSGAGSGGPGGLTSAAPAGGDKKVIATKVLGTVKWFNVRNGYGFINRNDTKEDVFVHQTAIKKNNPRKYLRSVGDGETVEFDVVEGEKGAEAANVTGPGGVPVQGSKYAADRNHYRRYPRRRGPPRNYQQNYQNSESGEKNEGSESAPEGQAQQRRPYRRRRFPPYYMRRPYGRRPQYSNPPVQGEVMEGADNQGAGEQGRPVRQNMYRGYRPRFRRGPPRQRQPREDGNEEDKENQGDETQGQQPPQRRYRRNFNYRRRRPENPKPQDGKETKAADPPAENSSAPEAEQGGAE
# Legend:
# [1] = target: MLLT3 as partner in the co-IP assays (construct and tag not stated) (human) (UniProt P42568); experiment: co-IP; exogenous Co-IP with Flag-tagged truncations of MLLT3, HMGB1 and YBX1 (Figures 4F, 6A); cells not given
# [2] = target: Flag-MLLT3 (Myeloid/Lymphoid Or Mixed-Lineage Leukemia; Translocated To, 3), full length (human) (UniProt P42568); experiment: as above
# [3] = target: MLLT3 N-terminus (Flag 1-279) (human) (UniProt P42568); experiment: as above
# [4] = target: MLLT3 as partner in the co-IP assays (construct and tag not stated) (human) (UniProt P42568); experiment: co-IP; whole proteins (Figures 4D, S6E); Thermo Scientific co-IP kit 88805; pre-cleared cell lysate incubated with A/G agarose beads coupled to HMGB1 and MLLT3 antibodies; Western blot
binding [1],binding [2],binding [3],binding [4],Substance
binds,–,–,–,HMGB1 C-terminus (Flag 111-215) (from UniProt P09429 111-215) (domain or fragment)
–,binds,binds,binds,HMGB1 as partner in the co-IP assays (construct and tag not stated) (from UniProt P09429 1-215)
binds,–,–,–,YBX1 N-terminus (Flag 1-160) (from UniProt P67809 1-160) (domain or fragment)
–,–,binds,binds,YBX1 as partner in the co-IP assays (construct and tag not stated) (from UniProt P67809 1-324)
